Measured values as given in publication PMC6233515.
No constants are given. Whether binding was seen depends on the method and setting. Binding seen in cells or lysates may run through a third protein. Binding can be weak; no strength is given. Sequences can lack the tags named with a protein.

Sequences of proteins named here, by UniProt entry; tags and fusion partners are left off. A change or cut given only in a name is not applied to a line headed by its entry.
UniProt P30530: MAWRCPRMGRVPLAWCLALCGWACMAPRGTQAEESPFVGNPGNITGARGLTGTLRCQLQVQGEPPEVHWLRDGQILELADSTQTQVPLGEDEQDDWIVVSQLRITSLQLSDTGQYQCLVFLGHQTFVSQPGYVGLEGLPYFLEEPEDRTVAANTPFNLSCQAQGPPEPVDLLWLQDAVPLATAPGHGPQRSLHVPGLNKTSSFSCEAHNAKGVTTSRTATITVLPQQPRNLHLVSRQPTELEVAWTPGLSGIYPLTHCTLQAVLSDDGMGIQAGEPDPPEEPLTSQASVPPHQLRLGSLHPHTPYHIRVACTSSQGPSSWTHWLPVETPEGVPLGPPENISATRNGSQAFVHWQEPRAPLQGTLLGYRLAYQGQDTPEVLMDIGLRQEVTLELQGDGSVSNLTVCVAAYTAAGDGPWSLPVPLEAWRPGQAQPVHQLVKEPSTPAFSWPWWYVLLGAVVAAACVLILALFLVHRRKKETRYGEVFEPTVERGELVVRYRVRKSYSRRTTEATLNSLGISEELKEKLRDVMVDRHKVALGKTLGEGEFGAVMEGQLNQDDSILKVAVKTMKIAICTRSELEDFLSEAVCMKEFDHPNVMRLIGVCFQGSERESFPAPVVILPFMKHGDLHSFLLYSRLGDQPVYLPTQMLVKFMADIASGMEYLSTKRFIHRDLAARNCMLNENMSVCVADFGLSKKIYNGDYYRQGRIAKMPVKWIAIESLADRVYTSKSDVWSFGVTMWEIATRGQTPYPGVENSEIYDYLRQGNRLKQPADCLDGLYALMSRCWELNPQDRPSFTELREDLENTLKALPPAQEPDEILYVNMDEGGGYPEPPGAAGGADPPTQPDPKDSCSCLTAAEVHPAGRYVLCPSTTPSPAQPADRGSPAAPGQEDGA

Target: T1, Myc-tagged wild-type human Tensin2 (human) (UniProt Q63HR2)
T1 sequence: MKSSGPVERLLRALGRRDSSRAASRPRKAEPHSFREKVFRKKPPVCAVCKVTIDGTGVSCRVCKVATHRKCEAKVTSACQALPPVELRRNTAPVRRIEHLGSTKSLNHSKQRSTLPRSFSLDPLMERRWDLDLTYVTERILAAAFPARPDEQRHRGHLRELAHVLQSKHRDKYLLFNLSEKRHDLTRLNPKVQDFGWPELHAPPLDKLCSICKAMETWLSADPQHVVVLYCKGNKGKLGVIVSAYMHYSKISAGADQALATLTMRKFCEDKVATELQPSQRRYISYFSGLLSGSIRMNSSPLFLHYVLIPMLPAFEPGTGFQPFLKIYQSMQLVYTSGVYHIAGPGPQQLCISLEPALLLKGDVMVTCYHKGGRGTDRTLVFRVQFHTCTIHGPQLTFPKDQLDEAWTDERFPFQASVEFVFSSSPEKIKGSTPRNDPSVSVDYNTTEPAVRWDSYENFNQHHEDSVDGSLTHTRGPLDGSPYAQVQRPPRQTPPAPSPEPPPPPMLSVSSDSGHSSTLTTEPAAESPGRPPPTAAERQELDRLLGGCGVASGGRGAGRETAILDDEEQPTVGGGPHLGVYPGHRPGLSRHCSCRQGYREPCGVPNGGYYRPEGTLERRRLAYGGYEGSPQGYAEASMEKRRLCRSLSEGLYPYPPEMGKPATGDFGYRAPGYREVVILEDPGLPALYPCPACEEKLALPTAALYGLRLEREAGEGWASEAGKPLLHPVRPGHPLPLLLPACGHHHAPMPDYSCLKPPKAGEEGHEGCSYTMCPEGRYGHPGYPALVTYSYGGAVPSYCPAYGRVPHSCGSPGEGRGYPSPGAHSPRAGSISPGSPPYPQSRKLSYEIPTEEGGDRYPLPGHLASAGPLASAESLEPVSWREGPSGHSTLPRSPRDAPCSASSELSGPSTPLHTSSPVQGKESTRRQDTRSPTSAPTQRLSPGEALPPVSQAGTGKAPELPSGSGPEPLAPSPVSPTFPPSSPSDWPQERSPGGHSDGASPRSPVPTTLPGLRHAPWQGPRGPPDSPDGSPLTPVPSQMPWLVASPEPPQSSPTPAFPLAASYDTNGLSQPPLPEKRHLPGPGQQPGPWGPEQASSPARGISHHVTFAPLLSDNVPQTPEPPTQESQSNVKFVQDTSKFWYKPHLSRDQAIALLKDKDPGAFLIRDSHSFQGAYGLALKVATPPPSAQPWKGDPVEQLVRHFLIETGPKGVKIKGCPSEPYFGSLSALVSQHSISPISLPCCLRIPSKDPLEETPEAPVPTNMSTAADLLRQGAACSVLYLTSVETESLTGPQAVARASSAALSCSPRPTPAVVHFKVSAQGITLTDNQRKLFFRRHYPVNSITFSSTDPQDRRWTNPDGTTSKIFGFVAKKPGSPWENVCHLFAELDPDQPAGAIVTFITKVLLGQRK
Test: co-IP; HEK293T cells transfected with Axl (wild type or mutants) and Myc-TNS2; NETN lysis buffer (150 mM NaCl, 1 mM EDTA, 20 mM Tris-Cl pH 8.0, 0.5% NP-40); reciprocal IP with anti-Myc (9E10) or anti-Axl (C-20) at 4 °C overnight, protein A/G-agarose; Western blot

In the case of “Axl Y886F/Y821F double mutant (from UniProt P30530) (receptor)”, the binding is reported as “binds”.
